PMC11143359 (2024)
Results are given in words; binding and its absence hold for the method and conditions named. In cells and extracts the contact can be indirect. Some entries that bind do so weakly or less than the wild type. Sequences can lack the tags named with a protein.

Chains of the proteins cited; added tags and fusions are not shown. Residues count along the entry.
UniProt Q61790, residues 24-521: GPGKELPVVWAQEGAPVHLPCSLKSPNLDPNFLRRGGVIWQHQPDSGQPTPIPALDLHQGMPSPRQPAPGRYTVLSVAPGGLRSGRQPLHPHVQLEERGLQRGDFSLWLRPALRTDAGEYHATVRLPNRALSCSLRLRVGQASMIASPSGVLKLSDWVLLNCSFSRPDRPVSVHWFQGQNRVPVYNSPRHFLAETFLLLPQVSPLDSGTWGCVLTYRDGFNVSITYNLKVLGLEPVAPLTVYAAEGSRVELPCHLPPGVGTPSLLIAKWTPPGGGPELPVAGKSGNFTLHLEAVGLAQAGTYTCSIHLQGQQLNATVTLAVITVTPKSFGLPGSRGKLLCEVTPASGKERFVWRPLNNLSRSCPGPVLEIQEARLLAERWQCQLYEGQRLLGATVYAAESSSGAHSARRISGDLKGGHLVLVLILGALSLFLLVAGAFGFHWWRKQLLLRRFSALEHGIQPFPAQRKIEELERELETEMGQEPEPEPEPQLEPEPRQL

Target: T1, FLAG-Aplp1, full-length (FL), in HEK293FT cells (UniProt Q03157)
T1 sequence: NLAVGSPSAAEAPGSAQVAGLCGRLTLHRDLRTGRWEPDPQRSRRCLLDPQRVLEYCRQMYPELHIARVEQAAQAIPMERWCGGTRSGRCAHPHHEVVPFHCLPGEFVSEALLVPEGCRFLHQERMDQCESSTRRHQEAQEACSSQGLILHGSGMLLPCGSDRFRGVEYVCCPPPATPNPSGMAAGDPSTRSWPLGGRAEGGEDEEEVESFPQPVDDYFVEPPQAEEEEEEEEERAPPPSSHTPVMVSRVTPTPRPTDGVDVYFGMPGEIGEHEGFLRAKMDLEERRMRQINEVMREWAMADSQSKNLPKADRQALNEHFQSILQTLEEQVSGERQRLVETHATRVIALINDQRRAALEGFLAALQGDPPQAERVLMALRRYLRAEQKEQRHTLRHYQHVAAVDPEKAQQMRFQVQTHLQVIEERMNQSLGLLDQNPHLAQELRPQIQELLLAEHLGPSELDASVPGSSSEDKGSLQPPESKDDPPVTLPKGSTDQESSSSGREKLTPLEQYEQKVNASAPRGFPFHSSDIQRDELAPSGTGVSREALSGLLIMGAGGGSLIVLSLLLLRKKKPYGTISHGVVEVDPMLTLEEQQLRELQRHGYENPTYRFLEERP
Assay: co-IP; HEK293FT cells transfected with FLAG-Aplp1 (or human FLAG-APLP1) and Lag3-Myc, full length or mutants; 50 mM Tris pH 8.0, 150 mM NaCl, 1% Triton X-100; anti-Myc on Protein G Dynabeads or FLAG M2 magnetic beads; in some panels 410C9, mIgG or α-syn PFF added

Substance: Lag3-Myc, full-length (FL), in HEK293FT cells (from UniProt Q61790 24-521) (receptor)
- binding: binds
